{"source": "patent US12359121B2", "about": "“Neutral fluorescent mitochondrial marker as amide derivative, and preparation method and use thereof” (SOOCHOW UNIVERSITY, priority 2021, dated 2025)", "tested_on": "HeLa cells", "experiment": "Photobleaching study in living cells", "type": "cell-based", "details": "5 μM, 1-30 min", "data": [{"smiles": "CCN(CC)c1ccc2c(C)c(-c3ccc(C(N)=O)cc3)c(=O)oc2c1", "note": "[dye 2a]", "values": [{"measurement": "fluorescence intensity after continuous laser irradiation", "setting": "laser source 561 nm", "result": "only a slight decrease in fluorescence intensity"}]}, {"smiles": "CCN(CC)c1ccc2nc3c4ccc(-c5ccc(C(N)=O)cc5)cc4c(=O)cc-3oc2c1", "note": "[dye 3a]", "values": [{"measurement": "fluorescence intensity after continuous laser irradiation", "setting": "laser source 405 nm", "result": "only a slight decrease in fluorescence intensity"}]}]}
